The values that follow come from patent publication US8765959B2, “Piperidine derivatives” (Boehringer Ingelheim International GmbH, priority 2011, dated 2014).

Amino acid sequences for entries named in this document (tags omitted). Residues count along the entry.
UniProt O00763, 129-2458 limits assumed: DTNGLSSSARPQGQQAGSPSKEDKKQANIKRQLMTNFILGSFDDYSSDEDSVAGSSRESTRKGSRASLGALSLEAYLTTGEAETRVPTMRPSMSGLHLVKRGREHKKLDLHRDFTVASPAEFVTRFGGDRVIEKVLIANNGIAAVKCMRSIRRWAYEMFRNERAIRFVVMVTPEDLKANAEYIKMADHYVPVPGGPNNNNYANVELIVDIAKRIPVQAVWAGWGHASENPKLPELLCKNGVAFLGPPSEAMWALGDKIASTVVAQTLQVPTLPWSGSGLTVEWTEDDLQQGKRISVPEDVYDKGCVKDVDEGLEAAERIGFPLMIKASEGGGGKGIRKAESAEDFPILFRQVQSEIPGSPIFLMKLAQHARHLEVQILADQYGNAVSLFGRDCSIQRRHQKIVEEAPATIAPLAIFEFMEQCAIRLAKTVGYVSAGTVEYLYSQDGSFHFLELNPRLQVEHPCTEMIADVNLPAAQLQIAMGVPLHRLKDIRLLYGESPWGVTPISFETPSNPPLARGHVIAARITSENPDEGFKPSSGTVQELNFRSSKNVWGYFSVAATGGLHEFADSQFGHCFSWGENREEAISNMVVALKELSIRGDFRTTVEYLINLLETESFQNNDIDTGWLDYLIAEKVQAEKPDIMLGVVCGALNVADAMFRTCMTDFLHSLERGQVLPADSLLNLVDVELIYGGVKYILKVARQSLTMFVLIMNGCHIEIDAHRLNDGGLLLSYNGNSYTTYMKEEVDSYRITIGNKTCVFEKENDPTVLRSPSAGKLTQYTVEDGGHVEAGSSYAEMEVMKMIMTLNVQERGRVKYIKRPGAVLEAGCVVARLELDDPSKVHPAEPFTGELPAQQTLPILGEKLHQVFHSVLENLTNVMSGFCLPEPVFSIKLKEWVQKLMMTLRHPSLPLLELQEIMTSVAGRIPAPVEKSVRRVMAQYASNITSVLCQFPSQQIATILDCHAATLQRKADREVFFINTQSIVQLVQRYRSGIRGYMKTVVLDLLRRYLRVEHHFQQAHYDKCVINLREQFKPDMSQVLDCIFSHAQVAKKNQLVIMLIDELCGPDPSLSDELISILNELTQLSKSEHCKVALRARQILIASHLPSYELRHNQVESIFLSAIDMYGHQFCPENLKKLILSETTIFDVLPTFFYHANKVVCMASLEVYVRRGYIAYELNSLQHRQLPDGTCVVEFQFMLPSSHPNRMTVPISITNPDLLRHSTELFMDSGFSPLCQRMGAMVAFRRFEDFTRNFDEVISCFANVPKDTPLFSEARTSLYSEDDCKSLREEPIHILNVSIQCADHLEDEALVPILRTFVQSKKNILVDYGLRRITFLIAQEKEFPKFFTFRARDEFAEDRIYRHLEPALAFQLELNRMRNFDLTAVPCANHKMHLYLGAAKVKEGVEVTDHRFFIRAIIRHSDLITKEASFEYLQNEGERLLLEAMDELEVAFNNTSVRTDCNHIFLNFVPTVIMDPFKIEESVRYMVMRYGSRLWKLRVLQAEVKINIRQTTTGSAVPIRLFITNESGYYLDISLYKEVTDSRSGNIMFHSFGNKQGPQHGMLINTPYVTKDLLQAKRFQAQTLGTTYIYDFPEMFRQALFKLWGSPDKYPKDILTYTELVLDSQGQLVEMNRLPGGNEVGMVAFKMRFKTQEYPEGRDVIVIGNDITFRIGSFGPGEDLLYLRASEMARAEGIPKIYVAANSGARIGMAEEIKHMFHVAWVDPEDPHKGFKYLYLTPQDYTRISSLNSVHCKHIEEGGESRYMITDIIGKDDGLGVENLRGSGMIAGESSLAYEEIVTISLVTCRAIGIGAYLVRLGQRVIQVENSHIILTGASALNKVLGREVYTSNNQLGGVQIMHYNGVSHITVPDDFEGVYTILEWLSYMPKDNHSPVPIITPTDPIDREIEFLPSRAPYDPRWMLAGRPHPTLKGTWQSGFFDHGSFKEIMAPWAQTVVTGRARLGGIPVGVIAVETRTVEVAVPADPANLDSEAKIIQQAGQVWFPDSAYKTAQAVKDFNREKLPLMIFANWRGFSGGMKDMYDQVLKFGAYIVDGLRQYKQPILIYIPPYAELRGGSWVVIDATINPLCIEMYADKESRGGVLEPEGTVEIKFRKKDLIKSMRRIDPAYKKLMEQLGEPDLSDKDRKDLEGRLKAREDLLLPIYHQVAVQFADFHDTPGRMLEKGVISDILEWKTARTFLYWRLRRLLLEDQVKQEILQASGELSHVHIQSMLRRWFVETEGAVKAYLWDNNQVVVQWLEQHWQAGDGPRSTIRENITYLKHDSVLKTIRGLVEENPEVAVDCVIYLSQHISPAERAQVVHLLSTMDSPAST

This experiment has as its target human ACC2 (Homo sapiens, UniProt O00763). Put plainly: ACC2 assay, spectrophotometric 384 well assay (NADH-linked, coupled lactate dehydrogenase/pyruvate kinase). The class given is biochemical. The following applies: human ACC2 construct lacking 128 N-terminal amino acids, 25° C., 340 nm, 15 minutes. How it is done:
Spectrophotometric 384 Well Assay
Malonyl CoA formation by acetyl CoA carboxylases is stoichometrically linked to the consumption of ATP. ACC2 activity is measured in a NADH-linked kinetic method measuring ADP generated during the ACC reaction using a coupled lactate dehydrogenase/pyruvate kinase reaction.
For biological testing, a human ACC2 construct which lacks the 128 amino acids at the N-terminus for increased solubility (nt 385-6966 in Genbank entry AJ575592) is cloned. The protein is then expressed in insect cells using a baculoviral expression system. Protein purification is performed by anion exchange.
All compounds are dissolved in dimethyl sulfoxide (DMSO) to a concentration of 10 mM.
Assay reactions are then carried out in 384-well plates, with hACC2 in an appropriate dilution and at final assay concentrations (f.c.) of 100 mM Tris (pH 7.5), 10 mM trisodium citrate, 25 mM KHCO3, 10 mM MgCl2, 0.5 mg/ml BSA, 3.75 mM reduced L-glutathione, 15 U/ml lactate dehydrogenase, 0.5 mM phosphoenolpyruvate, 15 U/ml pyruvate kinase, compounds at different concentrations at final DMSO concentrations of 1%.
The enzymatic reaction is then started by addition of a mixture of NADH, acetyl Coenzyme A (both 200 μM f.c.) and ATP (500 uM f.c.). The decrease of the optical density (slope S) is then determined at 25° C. at a wavelength of 340 nm over 15 minutes in a spectrophotometric reader. […]

The structures given here were assigned with low confidence; some may be wrong.

Regarding `CCCOc1ccc(C2CCN(c3ccc(C(C)NC(C)=O)cc3OC)CC2)c(C)c1` (stereo not shown), the half-maximal inhibitory concentration (IC50) was determined as 1150 nM.

Usually IC50 stands for the concentration that inhibits the measured activity by half.
